For three molecules, binding results are on record in patent EP4574844A1.

These are yes or no findings as the source states them, for the method shown.

This experiment concerns the target recombinant cynomolgus LILRB2 (cynomolgus monkey). Briefly: SPR, LILRB2 immobilised, scFv as analyte. On the technique in general: SPR reads the build-up and loss of mass on a sensor chip optically.

B1: PRO3697 (scFv)
scFv: AFQLTQSPSSLSASVGDRVTITCQASQSIGTYLAWYQQKPGKPPKLLIYRGGTLASGVPSRFSGSGSGTDFTLTISSLQPEDFATYYCQSYDSSNTFGTGTKVTVLGGGGGSGGGGSGGGGSGGGGSQEQLVESGGGLVQPGRSLRLSCAASGFDLSADYMCWVRQAPGKGLEWIACIYIDDDNTYYATWAKGRFTISKDNSKNTVYLQMNSLRAEDSAVYFCARGYGVYTGAITYFTLWGQGTLVKVSS
For B1, the binding entry is on record as “no binding (tested: 10 nM)”.

B2: PRO3744 (scFv)
scFv: DVQMTQSPSSLSASVGDRVTITCQASQSIGSNLAWYQQKPGKPPKLLIYKGGTLESGVPSRFSGSGSGTDFTLTISSLQPEDFATYYCQSTAGSSRSGNYGYVFGCGTKVTVLGGGGGSGGGGSGGGGSGGGGSQQLVESGGGLVQPGGSLRLSCAASGFSFTNNYYMCWVRQAPGKCLEWIACMLVGAWGNTYYASWANGRFTISKDNSKNTVYLQMNSLRAEDSAVYFCARARDYTWTLGGDPETSGFNLWGQGTLVKVSS
With B2, the binding entry is “no binding (tested: 10 nM)”.

B3: PRO3696 (scFv)
scFv: DVQMTQSPSSLSASVGDRVTITCQASQSIGLNLAWYQQKPGKPPKLLIYAGGYLASGVSSRFSGSGSGTDFTLTISSLQPEDFATYYCQSTYDGSSFVFAFGTGTKVTVLGGGGGSGGGGSGGGGSGGGGSQEQLVESGGGLVQPGGSLRLSCAASGFSFSSSSYMCWVRQAPGKGLEWIACMVTGSSDDTDYASWAKGRFTISKDNSKNTVYLQMNSLRAEDSAVYFCARAGSAPLWGQGTLVKVSS
In the case of B3, the binding result was “no binding (tested: 10 nM)”.
